Drawing on ChEMBL document CHEMBL1155626, “Metabolites of Colletotrichum gloeosporioides, an endophytic fungus in Artemisia mongolica” (2000), this text covers MIC for one compound.

The test system of this experiment is Staphylococcus aureus. The experiment is described as follows: Antimicrobial activity against Staphylococcus aureus after 48 hrs by paper disk assay. In kind it is functional.

In brackets after ≈: the same amount, converted by molar mass.

`CC1(C)S[C@@H]2[C@H](NC(=O)[C@H](N)c3ccccc3)C(=O)N2[C@H]1C(=O)O` [AMPICILLIN] registered an MIC of 0.5 mg/L (≈ 1.43 µM).

Usually MIC stands for the smallest concentration in the dilution series that meets the test's criterion for growth inhibition.
